Data as given in PubChem BioAssay AID1259308 (NCATS, 2017)

Aim: 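Candidate targets for better recombinant protein yield in mammalian cells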 (primary screen)
System: human HEK293 embryonic kidney cells stably expressing firefly luciferase (HEK-CMV-Luc2-Hygro)
Knock-down reagent: single siRNA against human genes, 0.8 pmol siRNA per well
Duration: 72 h
Read-out: 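Luciferase light (ONE-Glo) measured on one replicate plate set and viability (CellTiter-Glo) on the other, scaled to a negative control siRNA, with robust z-scores and luciferase per cell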
Scale: total luciferase, z-score and total luciferase, % of control: higher = more reporter protein produced
Rule for the call: 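An siRNA counts as active if its total luciferase robust z-score exceeds 3; genes with two or more such siRNAs out of three were retested with fresh siRNAs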
Calls: active = raised luciferase; inactive = no rise
Here is one part, drawn at random, of about 59,000 deposited reagents. About 1,510 of them (2.6%) count as active. 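Calls use total luciferase alone and ignore viability, so some active siRNAs may act by altering cell number.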 The numbers tell different reagents against one gene apart. Further read-outs or replicates are left out here.

With CUL1 #1, what does the deposit list?
total luciferase, z-score: -1.44; total luciferase, % of control: 53.2; Outcome: inactive

How did the screen score CUL1 #2?
total luciferase, z-score: -0.118; total luciferase, % of control: 79.5; Outcome: inactive

With CUL1 #3, what does the deposit list?
total luciferase, z-score: 0.514; total luciferase, % of control: 92.1; Outcome: inactive

For SLX9 #1, what does the deposit list?
total luciferase, z-score: 0.392; total luciferase, % of control: 89.7; Outcome: inactive

What did the screen give for SLX9 #2?
total luciferase, z-score: 0.75; total luciferase, % of control: 96.8; Outcome: inactive

What did the screen give for SLX9 #3?
total luciferase, z-score: 0.466; total luciferase, % of control: 91.1; Outcome: inactive

Which result is listed for GUCY1A2 #1?
total luciferase, z-score: -0.53; total luciferase, % of control: 71.3; Outcome: inactive

For GUCY1A2 #2, what does the deposit list?
total luciferase, z-score: 0.771; total luciferase, % of control: 97.2; Outcome: inactive

With GUCY1A2 #3, what was measured?
total luciferase, z-score: 1.56; total luciferase, % of control: 113; Outcome: inactive

What is on record for PDCD2L #1?
total luciferase, z-score: -1.07; total luciferase, % of control: 60.6; Outcome: inactive

How did the screen score PDCD2L #2?
total luciferase, z-score: -0.744; total luciferase, % of control: 67.1; Outcome: inactive

With PDCD2L #3, how do the results read?
total luciferase, z-score: 1.64; total luciferase, % of control: 115; Outcome: inactive

What is on record for CRIP1 #1?
total luciferase, z-score: 0.801; total luciferase, % of control: 97.8; Outcome: inactive

What did the screen give for CRIP1 #2?
total luciferase, z-score: -0.483; total luciferase, % of control: 72.3; Outcome: inactive

For CRIP1 #3, what does the deposit list?
total luciferase, z-score: 1.6; total luciferase, % of control: 114; Outcome: inactive

5 entries from above, reformatted:
gene knocked down | reagent | total luciferase, z-score | total luciferase, % of control | Outcome
CUL1 | 3 | 0.514 | 92.1 | inactive
SLX9 | 1 | 0.392 | 89.7 | inactive
SLX9 | 2 | 0.75 | 96.8 | inactive
SLX9 | 3 | 0.466 | 91.1 | inactive
GUCY1A2 | 1 | -0.53 | 71.3 | inactive

Next records follow:
How did the screen score ABCA8 #1?
total luciferase, z-score: 0.153; total luciferase, % of control: 84.9; Outcome: inactive

What did the screen give for ABCA8 #2?
total luciferase, z-score: 0.103; total luciferase, % of control: 83.9; Outcome: inactive

How did the screen score ABCA8 #3?
total luciferase, z-score: 1.45; total luciferase, % of control: 111; Outcome: inactive

With ADGRA1 #1, what was measured?
total luciferase, z-score: 0.168; total luciferase, % of control: 85.2; Outcome: inactive

With ADGRA1 #2, what does the deposit list?
total luciferase, z-score: -0.221; total luciferase, % of control: 77.5; Outcome: inactive

What did the screen give for ADGRA1 #3?
total luciferase, z-score: -0.0732; total luciferase, % of control: 80.4; Outcome: inactive

Which result is listed for OCLM (retired record) #1?
total luciferase, z-score: 0.429; total luciferase, % of control: 90.4; Outcome: inactive

How did the screen score OCLM (retired record) #2?
total luciferase, z-score: 0.709; total luciferase, % of control: 96; Outcome: inactive

For OCLM (retired record) #3, what was measured?
total luciferase, z-score: -1.76; total luciferase, % of control: 47; Outcome: inactive

For ZNF221 #1, how do the results read?
total luciferase, z-score: -0.518; total luciferase, % of control: 71.6; Outcome: inactive

For ZNF221 #2, what does the deposit list?
total luciferase, z-score: 0.0272; total luciferase, % of control: 82.4; Outcome: inactive

For ZNF221 #3, what does the deposit list?
total luciferase, z-score: -0.319; total luciferase, % of control: 75.5; Outcome: inactive

With ZKSCAN7 #1, what was measured?
total luciferase, z-score: 0.17; total luciferase, % of control: 85.3; Outcome: inactive

For ZKSCAN7 #2, what does the deposit list?
total luciferase, z-score: -0.572; total luciferase, % of control: 70.5; Outcome: inactive

What did the screen give for ZKSCAN7 #3?
total luciferase, z-score: -2.05; total luciferase, % of control: 41; Outcome: inactive

With POP1 #1, what does the deposit list?
total luciferase, z-score: 0.309; total luciferase, % of control: 88; Outcome: inactive

With POP1 #2, what was measured?
total luciferase, z-score: 0.109; total luciferase, % of control: 84.1; Outcome: inactive

With POP1 #3, what does the deposit list?
total luciferase, z-score: -1.81; total luciferase, % of control: 45.8; Outcome: inactive
